## Primary screen of a compound library

Source: ChEMBL document CHEMBL3988442, “University of Dundee, Small-Polar-MMV Screening Library” (2021).

A: 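Growth of Mycobacterium tuberculosis over 3 days (7H9 medium with glucose and tyloxapol); the read-out is not stated. Concentration: 50 µM. Direction is inferred from retests: higher values go with more growth inhibition. Of about 69,000 compounds tested this way, about 760 (1.1%) reached 50% or more in at least one test.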
B: 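Phenotypic screen: M. tuberculosis growth, cholesterol and DPPC medium, 4 days; the read-out is not stated. Compounds at 50 µM. Higher reads as more growth inhibition (inferred: compounds with an IC50 in retests scored well above the rest). About 69,000 compounds were tested under these conditions; 0.54% (about 370) showed 50% or more at least once.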

Results are given as percent effect. How 0% and 100% were set is not recorded. Most values in the screen are low, and negative values occur. The compounds are a random part of those screened. Two or more numbers in one place are separate tests of the same structure; such repeats can differ widely.

compound	A	B
OCc1cc2ccccc2nc1N1CCCC1	22.24	14.41
CCn1ncnc1CN(CCOC)Cc1ccc(C)cc1	4.468	11.97
CC(C)c1noc(C(C)N2CCN(Cc3cccnc3)CC2)n1 (stereo unspecified)	-18.76	-8.514
O=C(CC1CCN(c2ncnc3cccc(F)c23)CC1)N1CCCC1	-6.259 and 3.83	-7.182
O=C(O)C(F)(F)F.c1cnc(N2CCCC3(CCN(CC4CCC4)C3)C2)nc1 (stereo unspecified)	26.26	-8.065
Cc1cnc(N2CCCC3(CCCN(C)C3)C2)nc1 (stereo unspecified)	4.219	9.913
CC(C)C(CCO)NC(=O)Nc1cc(F)ccc1-n1cccn1 (stereo unspecified)	-14.89	-1.109
Cc1n[nH]c2ncc(CNC3CCCN(c4ncccn4)C3)cc12.Cl (stereo unspecified)	-25.12	8.485
CCn1ccnc1CN(C)C(=O)Cn1ccc2ccccc2c1=O	-6.151 and 5.288	-3.854
Cc1cc(C(=O)N2CCC3(CCC(=O)N(CC(N)=O)C3)CC2)ccc1O	14.02	5.55
CCc1nc(CC(=O)N2CCC(C(=O)N3CCCCC3)CC2)cs1	1.519	-15.4
CCCc1cc(C(=O)N2CCCC2c2cccnc2)[nH]n1 (stereo unspecified)	0.3874	-21.2
O=C(Cc1csc(-c2ccsc2)n1)N1CCN(c2cnccn2)CC1	6.245	-17.2
Cc1ccc(NC(C(N)=O)c2ccc(F)cc2)cc1 (stereo unspecified)	15.67	8.955
O=C1NCCN1C1CCN(CCOc2ccccc2F)CC1	22.91	6.847
CN(C)S(=O)(=O)N(C)C(c1cccnc1)c1ccc(F)c(F)c1 (stereo unspecified)	-31.52 and 1.833	-14.91
Cc1ccc(C)c(OC2CCN(C(=O)NCC(=O)N3CCCC3)CC2)c1	3.827	-7.629
CC(NC(=O)N1CCC(n2cncn2)CC1)c1ccc(F)cc1F (stereo unspecified)	-18.97	-1.403
O=C(c1cnc(-c2cccs2)s1)N1CCCN2CCCC2C1 (stereo unspecified)	-26.05	-37.3
N#Cc1cc(F)c(NCCc2ccc(F)cc2)c(F)c1	26.87	49.87
Cc1nn(CC(=O)N(C)Cc2nncn2C(C)C)c(=O)c2ccccc12	-0.002799 and 20.61	4.782
CC(C)c1ccc(OCC(=O)N2CCOCC2c2ncon2)cc1 (stereo unspecified)	-13.27	-10.99
COCc1nc(N(C)C)ncc1C(=O)NC(C)c1ccccc1 (stereo unspecified)	-7.583	7.244
COc1ncnc(N(C)C)c1NC(=O)c1cscc1C	-3.418 and 6.014	-0.5248
CCn1cc(NC(=O)C2CCC(=O)N2Cc2ccc(C)o2)cn1 (stereo unspecified)	-3.349 and -0.6557	2.197
COc1cccc(NC(=O)CNc2ccc(C(=O)N(C)C)c(Cl)c2)c1	-7.609	-18.6
CN(C)c1nc(CNC(=O)N[C@H](CO)c2ccccc2)cs1	-27.9 and -3.974	-27.75
O=S(=O)(NCCNc1ccc(-n2cccn2)nn1)c1ccccc1	73.42	63.29
CS(=O)(=O)NC(=O)CCc1cccc(OC2CCCC2)c1	-16.62	-21.01
CCS(=O)(=O)NCCCNC1CSCCc2ccccc21 (stereo unspecified)	4.205	12.56
Cc1cccc(N2CCN(C(=O)Nc3cnn(CC(N)=O)c3)CC2)c1	34.36	7.822
Cc1cc(C)c(CNC(=O)N2CCN(c3ccncc3)CC2)c(=O)[nH]1	17.18	2.602
O=C(O)C(F)(F)F.[H][C@@]12CCN(c3cccnc3)C[C@]1([H])CN(C(=O)c1ccccc1C)C2	-16.06	-26.92
Cc1nc(C2CCCN(C(=O)c3ccc(N4CCCC4)nc3)C2)no1 (stereo unspecified)	13.6	3.729
CCN1CCCc2cc(CN3CCc4nc(C)[nH]c(=O)c4C3)ccc21	2.92	-11.26 and 7.67
CCc1nnc2n1CCN(C(=O)CN(C)Cc1ccccc1)C2	0.5283	-9.645
Cc1nc(-c2ccco2)ccc1C(=O)N1CCCC1Cn1cccn1 (stereo unspecified)	-14.34	-9.681
[H][C@@]12COC[C@]1(COc1ccc(C#N)cn1)CN(Cc1ccoc1)C2	-5.334	5.54
Cn1ncc(N2CCOC(CCNC(=O)N3CCCCC3)C2)cc1=O (stereo unspecified)	-6.386	-7.842 and -13.95
CC(=O)NC1CCN(c2nc(C)nc3c2c(C)nn3C)C1 (stereo unspecified)	-23.46	-20.27
CCc1nnc(CN2CCC(c3nc4cc(Cl)ccc4o3)CC2)o1	6.396 and -8.662	-9.459
Cc1nn(C)c2c(NCc3ccncc3)nc(C3CC3)nc12	-6.761	-35.53
Cc1c(C(C)NC(=O)Nc2ccccc2F)cnn1C (stereo unspecified)	3.573	-2.698
O=C(Cc1c[nH]c2ncccc12)NCC(O)c1ccsc1 (stereo unspecified)	3.595 and 4.477	-3.481
Cc1nnc(NC(=O)NCc2ccc(OC3CCCC3)nc2)s1	17.08	31.98
CC(C(=O)N1CCCN(c2ccccc2C#N)CC1)n1cccn1 (stereo unspecified)	-0.2132	22.45
CCOCC1CN(Cc2cc(C)on2)Cc2cn(C)nc21 (stereo unspecified)	5.469 and -1.175	4.221
O=C(NCC1=CCCCC1)C(c1cccnc1)N1CCCC1 (stereo unspecified)	-70.27	-59.57 and -26.9
CC(C)C(=O)N1CCC(C2C(=O)Nc3ccccc32)CC1 (stereo unspecified)	-17.15	-4.21
CC(=O)N1CCC(Cc2cnc(Nc3cc(C)on3)cn2)CC1	-8.764	2.389
COCC(=O)N1CCc2nc(C(=O)Nc3cccnc3)sc2CC1	-4.95	-7.353
CC(C)CN1CCC(NC(=O)c2ccc(F)cc2I)CC1	0.9065 and -5.158	-3.965
NC(=O)C1CCCN1Cc1ccccc1NC(=O)Cc1cccs1 (stereo unspecified)	-24.53	-16.3
Cc1cc(C(=O)Nc2ccc(CN3CCOCC3)cn2)n(C)n1	1.972 and -3.821	-0.5484
Cc1cc(CN2CCc3c(CNc4ncccn4)cncc3C2)oc1C.Cl.Cl	31.84	-12.84
Cc1cncc(C(=O)N2CCCC(C(=O)CCc3ccccc3)C2)c1 (stereo unspecified)	-26.53 and -1.773	-14.43
Cc1cc(CN2CCC(C3CCN(CCc4ccccc4)CC3)C2)[nH]n1 (stereo unspecified)	35.48 and 20.69	34.4
CN(C)c1nc2c(c(=O)[nH]1)CCN(C(=O)C1CCCO1)C2 (stereo unspecified)	-9 and -1.848	-19.19
CN(C)c1ncccc1C(=O)N1CCc2c(ncn2C2CC2)C1	6.539 and 8.981	10.45
COc1c[nH]c(C(=O)Nc2nc(C(C)(C)C)cs2)cc1=O	2.845	19.09
CN(C)Cc1ccnc(C2CCCN2Cc2cccc(F)c2F)n1 (stereo unspecified)	16.41	30.96
CSCC[C@H](NC(=O)Cn1ccc2c(Br)cccc21)C(=O)O	-13.71	-2.797
Cc1cc2c(=O)n3c(nc2s1)CCN(C(=O)c1ccn(C)n1)CC3	-9.349	20.19
[H][C@@]12CCN(c3cccc(C)n3)C[C@]1([H])[C@@H](CN(C)Cc1ccco1)OC2	21.35	31.96
CCN1CCN(C[C@@H]2CN(c3ncccc3F)C[C@@H]2CO)CC1	-23.27	-54.43
CCn1ccc(CN(C)C(=O)CSc2nnc(N)s2)n1	18.66	-17.89
CC(C)Sc1ncccc1C(=O)NCc1cccc(N(C)C)c1	9.568	9.666
O=C(c1ccc2[nH]cnc2c1)N1CCCC1Cn1cccn1 (stereo unspecified)	-21.82	-0.3817
Cc1nc(N2CCCCC2)ncc1-c1cc(O)nc(N2CCCCC2)n1	7.479	-1.049
N#Cc1nccnc1N1CCN(CCOCc2ccccc2)CC1	-12.2	-15.84
O=C(NCCc1ccccn1)Nc1cc(C(F)(F)F)c[nH]c1=O	-35.34	-9.552
Cc1cc(C2CCCN2Cc2nc3c(cnn3C)c(=O)[nH]2)on1 (stereo unspecified)	2.247 and -41.18	-0.2238
O=C(O)C(F)(F)F.c1cnc(N2CCOCC3(C2)CN(c2nccs2)CCO3)nc1 (stereo unspecified)	-6.167	-23.62
Cc1cc(C[C@@H]2COC[C@@H]2NC(=O)Cn2c(=O)oc3ccccc32)on1	-5.902 and -0.6108	4.793
CCNc1ncc(C(=O)N2CCOC(CCCC(C)C)C2)cn1 (stereo unspecified)	56.7	58.46 and 59.8
COc1nc2c(cc1C(=O)NCc1noc(Cc3cccs3)n1)CCC2	1.165 and -7.868	10.82
O=C(c1nc(=O)[nH][nH]1)N1CCCC(c2cc(C(F)(F)F)[nH]n2)C1 (stereo unspecified)	5.384	-23.14

Once more, the final 4:

{"compound": "Cc1cc(C[C@@H]2COC[C@@H]2NC(=O)Cn2c(=O)oc3ccccc32)on1", "A": "-5.902 and -0.6108", "B": 4.793}
{"compound": "CCNc1ncc(C(=O)N2CCOC(CCCC(C)C)C2)cn1", "stereo": "stereo unspecified", "A": 56.7, "B": "58.46 and 59.8"}
{"compound": "COc1nc2c(cc1C(=O)NCc1noc(Cc3cccs3)n1)CCC2", "A": "1.165 and -7.868", "B": 10.82}
{"compound": "O=C(c1nc(=O)[nH][nH]1)N1CCCC(c2cc(C(F)(F)F)[nH]n2)C1", "stereo": "stereo unspecified", "A": 5.384, "B": -23.14}